# In PubChem BioAssay AID493014 (National Center for Advancing Translational Sciences (NCATS), 2011):
# The list shows a part of the results. Further columns of the screen follow, without active or inactive calls. Most of these compounds were active or inconclusive in the main read-out, so they are no random draw. Words in brackets tell the shape of the fitted curve; partial curves, single points and poor fits give uncertain potencies.
# Experiment: qHTS Assay to Find Inhibitors of Chronic Active B-Cell Receptor Signaling
# Settings: ABC-DLBCL IkBa-CBG/CBR reporter, luminescence ratio (green luciferase fused to IkBa over red control in TMD8 lymphoma cells), 4 h
# Summary of the method: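 Doxycycline induced both beetle luciferases in TMD8 lymphoma cells; IKK-driven degradation limits the IkappaBalpha-fused green signal, while red luminescence normalises for cell number and nonspecific effects. Compounds tested up to 46 uM, 4 hrs.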
# [1] = measured here: CBR red luminescence, cell number
# [2] = measured here: IkBa-CBG green luminescence
compound,measurement,setting,value
O=C(c1ccccc1-c1nc(-c2ccccc2)no1)N1CCOCC1,AC50,[1],"15.8 µM [rising, single point]"
O=C(OCCc1cc2ccccc2c(=O)o1)c1ccc2c(c1)OCO2,AC50,[1],"29.1 µM [falling, single point]"
CC/C(C)=N/NC(=O)c1[nH]c2ccc(C)cc2c1-c1ccccc1,AC50,[2],"3.55 µM [falling, full curve]"
CCC(CC)c1nc2ccccc2c(=O)[nH]1,AC50,[1],"14.1 µM [falling, partial curve]"
O=C(CSc1nnc(-c2csc3c2CCCC3)o1)Nc1ccccc1,AC50,[1],"11.6 µM [falling, partial curve, poor fit]"
COc1ccccc1C(=O)n1nc(-c2ccc(Cl)cc2)nc1N,AC50,[1],"0.58 µM [falling, full curve]"
O=C1NC(=O)/C(=C\c2ccc(OCc3ccccc3)cc2)S1,AC50,[1],"2.82 µM [rising, partial curve, poor fit]"
O=S(Cc1ccc(Br)cc1)Cc1nnc(SCc2ccc(Cl)cc2)n1-c1ccccc1 (centres undefined),AC50,[1],"25.1 µM [falling, single point]"
CCOc1cc(-c2cc(-c3ccc(C)o3)nc(N)c2C#N)ccc1O,AC50,[1],"0.82 µM [falling, full curve]"
COC(=O)c1ccc(C(=O)Nc2ccc(F)cc2)cc1,AC50,[1],"0.058 µM [falling, full curve]"
CC(=O)c1c(C)[nH]c(C(=O)OCC(=O)c2c[nH]c3ccccc23)c1C,AC50,[1],"29.1 µM [falling, single point]"
same,AC50,[2],"18.4 µM [falling, partial curve, poor fit]"
CN(C)CCCN(CCCN(C)C)C(=S)Nc1ccc(S(=O)(=O)N2CCOCC2)cc1,AC50,[1],"7.08 µM [falling, partial curve, poor fit]"
O=C(O)CCC(=O)Nc1ccc(N2CCCCCC2)cc1,AC50,[1],"0.058 µM [falling, full curve]"
Cn1c(SCC(=O)Nc2nccs2)nnc1-c1ccco1,AC50,[1],"29.1 µM [falling, single point]"
c1ccc(Nc2nc(N3CCOCC3)c3ccccc3n2)cc1,AC50,[1],"32.6 µM [falling, single point]"
NC(=O)c1ccsc1NC(=O)COC(=O)c1cc(=O)[nH]c2ccccc12,AC50,[1],"2.91 µM [falling, full curve, poor fit]"
COc1ccc(CCNC(=S)Nc2cccc3ccccc23)cc1,AC50,[1],"6.51 µM [rising, partial curve, poor fit]"
same,AC50,[2],"29.1 µM [falling, single point]"
O=C(CC1CCCCC1)N1CCN(c2ccccn2)CC1,AC50,[1],"32.6 µM [falling, partial curve, poor fit]"
O=C(CCC(=O)c1ccc(Cl)s1)Nc1ncccc1O,AC50,[1],"18.4 µM [falling, partial curve]"
O=C(COC(=O)C1(c2ccccc2F)CCCC1)NCc1ccc2c(c1)OCO2,AC50,[1],"5.17 µM [rising, single point]"
C/C(=N/O)c1cccc(N2Cc3ccccc3C2)c1,AC50,[1],"22.4 µM [falling, single point]"
FC(F)(F)c1cccc(-c2ccc(-c3csnn3)o2)c1,AC50,[1],"2.82 µM [rising, full curve, poor fit]"
C1CCCC(NC2=NCCO2)CCC1,AC50,[1],"0.891 µM [falling, full curve, poor fit]"
CC1=NN(c2ccccc2)C(=O)C1C(=O)c1ccc([N+](=O)[O-])cc1 (centres undefined),AC50,[1],"35.5 µM [falling, partial curve, poor fit]"
CSc1ccc(CNCCN2CCOCC2)cc1,AC50,[1],"0.708 µM [rising, full curve, poor fit]"
Cc1ccc(S(=O)(=O)N(C)CC(=O)OCC(=O)c2ccc3c(c2)NC(=O)CO3)cc1,AC50,[1],"29.1 µM [rising, single point]"
S=C(NCCc1ccccc1)Nc1ccc(Nc2ccccc2)cc1,AC50,[1],"0.158 µM [falling, full curve]"
COc1ccc(-c2noc(CCC(=O)NC3CCN(Cc4ccccc4)CC3)n2)cc1,AC50,[1],"7.31 µM [rising, partial curve, poor fit]"
c1ccc(-c2cc(-c3nnc4sc(-c5ccccn5)nn34)[nH]n2)cc1,AC50,[1],"3.98 µM [falling, full curve]"
O=C(COc1ccccc1Br)c1ccc(O)cc1O,AC50,[1],"3.55 µM [falling, full curve, poor fit]"
CCCC(=O)N1CCc2cc(OC)c(OC)cc2C1COc1ccccc1OC (centres undefined),AC50,[1],"2.82 µM [rising, partial curve, poor fit]"
C=CCn1c(NC(=O)c2ccco2)c(S(=O)(=O)c2ccccc2)c2nc3ccccc3nc21,AC50,[1],"17.8 µM [falling, partial curve, poor fit]"
COc1cc(C#Cc2c(-c3cncn3C)n(C)c3ccc(-c4ccc(OC)c(OC)c4)cc23)cc(OC)c1,AC50,[1],"2.91 µM [falling, full curve]"
O=C(Nc1ccc(-c2nc3ccccc3s2)cc1)c1cc(-n2cnnc2)ccc1Cl,AC50,[1],"35.5 µM [rising, single point]"
O=C(NCc1ccccn1)C(=O)Nc1ccccc1,AC50,[1],"6.31 µM [falling, partial curve]"
Nc1c(C(=O)CSc2ncccn2)c(=O)[nH]c(=O)n1C1CC1,AC50,[1],"29.1 µM [rising, single point]"
CC(C)CC1NC(=O)N(CC(=O)N2CCN(S(=O)(=O)c3ccc4ccccc4c3)CC2)C1=O (centres undefined),AC50,[1],"29.1 µM [rising, single point]"
COc1ccc2[nH]cc(CCNC(=O)Nc3ccccc3)c2c1,AC50,[1],"3.98 µM [rising, full curve, poor fit]"
CCOc1ccccc1CN1CCN(Cc2cccc3nonc23)CC1CCO (centres undefined),AC50,[1],"6.31 µM [falling, single point]"
O=C(N/N=C/c1ccc(N2CCCCC2)o1)c1ccccc1,AC50,[1],"8.2 µM [falling, partial curve]"
CC(C)c1ccc(NC(=O)NCc2cccnc2)cc1,AC50,[1],"0.316 µM [rising, full curve, poor fit]"
O=C(NCCN1CCOCC1)c1cc(-c2ccc(F)cc2)on1,AC50,[1],"7.08 µM [falling, full curve]"

# Given as tab-separated lines: entries from further up.
compound	measurement	setting	value
CSc1ccc(CNCCN2CCOCC2)cc1	AC50	[1]	0.708 µM [rising, full curve, poor fit]
Cc1ccc(S(=O)(=O)N(C)CC(=O)OCC(=O)c2ccc3c(c2)NC(=O)CO3)cc1	AC50	[1]	29.1 µM [rising, single point]
